The values that follow are results of earlier work, collected in paper PMC11489206, “Transport of perfluoroalkyl substances across human induced pluripotent stem cell-derived intestinal epithelial cells in comparison with primary human intestinal epithelial cells and Caco-2 cells” (Archives of Toxicology, 2024).

On the set-up of the data set: method as in Ayehunie et al. (2005). The following applies: ref Ayehunie et al. (2005); cited from earlier work.

Consider `CCCC(=O)Nc1ccc(OCC(O)CNC(C)C)c(C(C)=O)c1` (stereo not shown) [Acebutolol, acebutolol], for which the BCS class is 3.
For the molecule `CC(C)NCC(O)COc1ccc(CC(N)=O)cc1` (stereo not shown) [Atenolol, atenolol], the BCS class is reported as 3.
On to `CCOC(=O)[C@H](CCc1ccccc1)N[C@@H](C)C(=O)N1CCC[C@H]1C(=O)O` [Enalapril, enalapril], for which the BCS class is listed as 3.
Consider `CC(C)NCC(O)COc1cccc2ccccc12` (stereo not shown) [Propranolol, propranolol], for which the BCS class is on record as 1.
